From US7858585B2, “Hydrogels and uses thereof” (University of Delaware, priority 2005, dated 2010)
Entries after “also recorded” stand apart in the source; their conditions may differ. Not every detail of the peptide structures is certain; ends, links or a residue may be inferred. For part of these data: The name of at least one read-out is uncertain. Square brackets hold non-standard residues; d marks the D form. Peptide text beside a SMILES is read from it.

What was measured:
[1] = CD kinetics of β-sheet formation ([θ]216) after addition of DMEM; assay type: physicochemical; settings: 0.5 wt %, pH 7.4, 37° C.
Experimental: (§1) To a vial containing 1 mg of peptide, 100 μL of 25 mM HEPES, pH 7.4 was added resulting in a soluble 1 wt % peptide solution. To this solution, an equal volume of DMEM supplemented with 25 mM HEPES, pH 7.4 was added to initiate self-assembly, resulting in a 0.5 wt % hydrogel. All hydrogels were prepared by this method unless otherwise stated.
CD kinetic spectra were collected on a Jasco J-810 spectropolarimeter employing 0.1 mm quartz water-jacketed cell. Peptide samples were prepared as stated above, transferred to the cell at 37° C. The ellipiticity in millidegrees were monitored at 216 nm as a function of time. Following the kinetic measurement, a wavelength scan was recorded at 37° C. using a 2 nm step size. The concentrations of MAX1 and HPL8 stock solutions were determined by absorbance (λ220=15750 cm-1.M-1) after dilution with water. Mean residue ellipticity [θ]=(θobs/10.1.c)/r, where θobs is the measured ellipticity in millidegrees, l is the length of the cell (cm), c is the concentration (M) and r is the number of residues.

[2] = Bulk rheology of hydrogels formed at pH 9 (125 mM Borate, 10 mM NaCl); assay type: physicochemical
[3] = system: fibroblasts (NIH 3T3, mouse); assay: Fibroblast adhesion and proliferation on hydrogel by optical microscopy; assay type: cell-based; settings: 2 wt % gel
Experimental: These cells were used as a model system because of their importance in connective tissue development and their easily distinguished morphology when adhered to the hydrogel scaffold. Qualitative studies were performed in which cells were added to either polystyrene control wells or wells containing a uniform slab (3 mm thick) of MAX1-hydrogel. Cell adhesion was qualitatively monitored via direct observation of cell spreading after four hours from the time of initial cell seeding by optical microscopy (a quantitative cell attachment assay is described below, see also Akiyama, S. K. Functional analysis of cell adhesion: Quantitation of cell-matrix attachment, 2002; Vol. 69, pp 281-296). Non-adhered fibroblasts have rounded morphologies and adhered fibroblasts have spread morphologies Proliferation was measured both qualitatively by optical microscopy and quantitatively by a ^3H thymidine-based cell seeding assay as described below. Hydrogels were prepared in 48 well tissue culture plates by either one of the following protocols. Protocol 1: MAX1 was dissolved in water (resulting in an acidic solution, pH˜5) and an equal volume of buffer (pH 9, 250 mM borate, 20 mM NaCl) was added at room temperature to induce folding/self-assembly resulting in a 2 wt % hydrogel. The resulting gel was bathed in DMEM containing 10% calf serum and 10 mg/mL gentamicin. This allowed media to permeate throughout the gel and adjust the pH to 7.3 The storage moduli (rigidity) of gels prepared by protocol 1 are about 1600 Pa. Protocol 2: MAX1 was dissolved in water and an equal volume of serum free DMEM containing 10 mg/mL gentamicin was added to induce folding/self-assembly affording 2 wt % hydrogels. Depending on the experiment, DMEM containing calf serum can then be added to introduce serum proteins. The storage moduli of gels prepared by protocol 2 are about 1200 Pa. […] Proliferation of the cells occurs until confluency is reached, usually around 72 hours if 10^4 cells are initially plated, FIG. 16B. […]

[4] = Dynamic oscillatory rheology of salt- or cell growth media-triggered hydrogels at pH 7-7.4; assay type: physicochemical
[5] = Oscillatory rheology of 0.5 wt % MAX1 and HPL8 hydrogels in DMEM, pH 7.4, 37° C.; assay type: physicochemical; settings: DMEM, pH 7.4, 37° C.
Experimental: as §1
Oscillatory rheology experiments were performed on a TA Instruments rheometer (AR 2000) with a 25 mm diameter stainless steel parallel plate geometry with a gap height of 0.5 mm. All measurements were acquired at 37° C. For dynamic time sweeps (DTS) the hydrogels were prepared as stated above and quickly transferred to the rheometer where the storage modulus (G′) was monitored as a function of time, frequency=6 rad. sec-1 and strain=0.2%. For the shear thinning experiments, a DTS was preformed for 10 min at which time 1000% stain was applied for 30 seconds to shear thin the material. After which time, the strain was decreased to 0.2% and G′ monitored as a function of time. Dynamic frequency, dynamic strain and dynamic time sweep measurements measuring both G′ and the loss modulus (G″) are provided in FIG. 36.

[6] = 2 wt %, pH 7.4, 150 mM NaCl, 37° C.
[7] = 2 wt %, serum free DMEM cell growth media, 37° C.

CC(C)[C@H](N)C(=O)N[C@@H](CCCCN)C(=O)N[C@H](C(=O)N[C@@H](CCCCN)C(=O)N[C@H](C(=O)N[C@@H](CCCCN)C(=O)N[C@H](C(=O)N[C@@H](CCCCN)C(=O)N[C@H](C(=O)N1CCC[C@@H]1C(=O)N1CCC[C@H]1C(=O)N[C@H](C(=O)N[C@@H](CCCCN)C(=O)N[C@H](C(=O)N[C@@H](CCCCN)C(=O)N[C@H](C(=O)N[C@@H](CCCCN)C(=O)N[C@H](C(=O)N[C@@H](CCCCN)C(=O)N[C@H](C(N)=O)C(C)C)C(C)C)C(C)C)C(C)C)[C@@H](C)O)C(C)C)C(C)C)C(C)C)C(C)C [MAX1, VKVKVKVK V^DPPT KVKVKVKV-NH2] (H-VKVKVKVKV[dP]PTKVKVKVKV-NH2)
time to completely fold and self-assemble affording gel [1]: approximately 30 minutes | rate of self-assembly leading to a rheological response, MAX1 compared to MAX4 ([2]; 1 wt %, 40° C., pH 9.0): faster | rheological response after adding HCl to gel ([2]; 2 wt % gel, final pH ˜6.0): essentially that of pure water | time to recover 80% of the equilibrium modulus after shear ([2]; 2 wt %, after 1000% strain at 6 Hz for 180 seconds): 30 min | initial modulus of the reforming gel after shear ([2]; 2 wt %, immediately after 1000% strain at 6 Hz for 180 seconds): 650 Pa | gel modulus after two hours ([2]; 2 wt %, pH 9, 20° C.): ~1200 Pa | gel storage modulus after 30 minutes ([2]; 2 wt %, pH 9, 20° C.): ~600 Pa | equilibrium storage modulus ([2]; 2 wt %, pH 9, 20° C., after several hours of gel formation): ~1600 Pa | fraction of former rigidity immediately after hydrogel destruction via large strain ([2]; 2 wt %, pH 9, FIG. 6D legend): ~75% | time to regain prestrain rigidity ([2]; 2 wt %, pH 9, FIG. 6D legend): 10 to 20 min | storage moduli (rigidity) of gels prepared by protocol 1 ([2]; 2 wt %, water + pH 9 borate buffer, then bathed in DMEM with 10% calf serum): about 1600 Pa | crossover concentration separating liquid-like (G″>G′) vs. gel-like (G′>G″) response ([2]; pH 9): about 1 wt % | fibroblast adhesion to gel surface in the presence of serum ([3]; DMEM with 10% calf serum, after four hours): adhered to the surface of the gel; also recorded: efficiently attached | fibroblast adhesion to gel in the absence of serum ([3]; DMEM without serum, about four hours): begin to attach and spread; also recorded: less efficiently | time until confluency is reached ([3]; 10^4 cells initially plated, with serum): around 72 hours | G′ during lag time ([4]; 2 wt %, 20 mM NaCl, 20° C.): 2-3 Pa | lag time before G′ increases ([4]; 2 wt %, 20 mM NaCl, 20° C.): 3000 s | lag time before G′ increases ([4]; 2 wt %, 150 mM NaCl, 20° C.): ~1000 s | lag time before G′ increases ([4]; 2 wt %, 400 mM salt, 20° C.): does not exist | G′ from frequency sweep ([4]; 2 wt %, cell growth media, 37° C.): ~2500 Pa | hydrogel rigidity, NaCl triggered ([4]; 2 wt %, pH 7, 150 mM NaCl, data not shown): 3000 Pa | G′ ([4]; 2 wt %, pH 7.4, 20 mM NaCl, 20° C.): ~100 Pa | G′ from frequency sweep after 2.5 hours gelation [4, 6]: around 2000 Pa | time of gelation to a material of useful rigidity [4, 6]: about 10 minutes | equilibrium storage modulus (G′) ([4]; 2 wt %, pH 7.4, 400 mM NaCl, 20° C., after 2.5 hr): ~3000 Pa | G′ at the end of 2 hours of gelation [4, 7]: 2300 Pa | G″ at the end of 2 hours of gelation [4, 7]: 50 Pa | instantaneous recovery of G′ relative to initial value after cessation of shear ([4]; cell growth media, 37° C., after 1000% strain at 6 rad/s): ~50% | G′ without added NaCl ([4]; pH 7.4, no added NaCl, after 3 hours, no gelation): approximately 1 Pa | G′ after 60 minutes [5]: < 40 Pa
